Results are given in words; binding and its absence hold for the method and conditions named. Binding seen in cells or lysates may run through a third protein. Some results given as binding are weak or reduced against the parent protein; the word gives no strength.

Among the data in paper PMC7109600 are binding values, retold here.

The target in this assay is SFB-RNF40 (full-length human RNF40), expressed in HCT116 cells (human) (UniProt O75150). Description: co-IP; HCT116 cells transfected with HA-p53 and SFB-RNF20 or SFB-RNF40; lysed with NETN300 buffer; IP and western blot, both directions. In general terms: A western blot detects proteins with antibodies after separation by electrophoresis.

Regarding “HA-p53 (human p53 in pCMV-HA), expressed in HCT116 cells (from UniProt P04637 1-393)”, the binding result is “binds”.
